From paper PMC3602376

Sequences of proteins named here, by UniProt entry; tags and fusion partners are left off. A change or cut given only in a name is not applied to a line headed by its entry.
UniProt Q67XJ2: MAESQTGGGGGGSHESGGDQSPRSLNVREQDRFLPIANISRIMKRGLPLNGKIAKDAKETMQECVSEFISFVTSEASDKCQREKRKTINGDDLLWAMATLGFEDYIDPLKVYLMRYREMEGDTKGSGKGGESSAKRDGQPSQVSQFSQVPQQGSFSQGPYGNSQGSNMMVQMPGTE
UniProt Q9FGJ3: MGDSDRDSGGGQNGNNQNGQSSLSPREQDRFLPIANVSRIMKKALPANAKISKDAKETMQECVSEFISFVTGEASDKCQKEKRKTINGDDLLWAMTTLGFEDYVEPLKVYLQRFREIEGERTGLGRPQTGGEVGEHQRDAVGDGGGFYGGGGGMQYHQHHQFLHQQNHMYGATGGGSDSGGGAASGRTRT

Tests used:
Assay in all cases: two-hybrid; directed Y2H, ProQuest Two-Hybrid System (pDEST22, pDEST32); NF-YB or NF-YC constructs fused to DBD, bZIP proteins fused to AD; beta-galactosidase (X-Gal) reporter, similar activation seen for two other reporters
[1] = target: NF-YB10, full length (Arabidopsis thaliana (Col-0 cDNA)) (UniProt Q67XJ2)
[2] = target: NF-YB2 from the first AA of the HFM through the end (B2HFM+B2C, AA 26–190) (Arabidopsis thaliana (Col-0 cDNA)) (UniProt Q9FGJ3)
[3] = target: NF-YB2 from the start through the HFM (B2N+B2HFM, AA 1–121) (Arabidopsis thaliana (Col-0 cDNA)) (UniProt Q9FGJ3)
[4] = target: NF-YB10 N-terminal region (B10N, AA 1–22) (Arabidopsis thaliana (Col-0 cDNA)) (UniProt Q67XJ2)
[5] = target: NF-YB10 C-terminal region (B10C, AA 123–228) (Arabidopsis thaliana (Col-0 cDNA))

binding [1]: no binding | binding [2]: no binding | binding [3]: no binding | binding [4]: no binding | binding [5]: no binding
B1: ABA BINDING FACTOR 3 (ABF3), full length (protein, UniProt Q9M7Q3 1-454)
chain: MGSRLNFKSFVDGVSEQQPTVGTSLPLTRQNSVFSLTFDEFQNSWGGGIGKDFGSMNMDELLKNIWTAEESHSMMGNNTSYTNISNGNSGNTVINGGGNNIGGLAVGVGGESGGFFTGGSLQRQGSLTLPRTISQKRVDDVWKELMKEDDIGNGVVNGGTSGIPQRQQTLGEMTLEEFLVRAGVVREEPQPVESVTNFNGGFYGFGSNGGLGTASNGFVANQPQDLSGNGVAVRQDLLTAQTQPLQMQQPQMVQQPQMVQQPQQLIQTQERPFPKQTTIAFSNTVDVVNRSQPATQCQEVKPSILGIHNHPMNNNLLQAVDFKTGVTVAAVSPGSQMSPDLTPKSALDASLSPVPYMFGRVRKTGAVLEKVIERRQKRMIKNRESAARSRARKQAYTMELEAEIAQLKELNEELQKKQVEIMEKQKNQLLEPLRQPWGMGCKRQCLRRTLTGPW

These are yes or no findings as the source states them, for the method shown.
